Results from PubChem BioAssay AID493014 (National Center for Advancing Translational Sciences (NCATS), 2011).
The other results are listed elsewhere or left out. The main result of the screen is listed elsewhere. These columns were measured beside it and carry no call. The list favours compounds with an active or inconclusive main result. Potencies come from curve fits of mixed quality, noted in brackets.

Assay: qHTS Assay to Find Inhibitors of Chronic Active B-Cell Receptor Signaling
Conditions: ABC-DLBCL IkBa-CBG/CBR reporter, luminescence ratio (green luciferase fused to IkBa over red control in TMD8 lymphoma cells), 4 h
In short: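 Cell line TMD8 (human ABC DLBCL), stably expressing tet-inducible CBG68-IkBa fusion and CBR; IMDM/0.5% FBS; cpd up to 46 uM; dox induction, 4 h, 37C/5% CO2; dual luminescence; green/red ratio; MG132 control.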

[1] = measured here: CBR red luminescence, cell number
[2] = measured here: IkBa-CBG green luminescence

Row | SMILES | AC50 [1] | AC50 [2]
1 | CCC(C)C(NC(=O)C1CCC(C)CC1)C(=O)Nc1ccc(OC)cc1OC (stereo not given) | 11.2 µM [rising, partial curve, poor fit] | 
2 | CCn1c(=O)c(C(=O)NC(C)C)c(O)c2ccccc21 | 29.1 µM [rising, single point] | 
3 | O=C(Nc1ccc2c(c1)OCCO2)c1cc2sccc2n1Cc1ccccc1 |  | 5.01 µM [rising, full curve, poor fit]
4 | COc1ccccc1C(=O)C1CCCN(C(=O)Nc2ccccc2F)C1 (stereo not given) | 5.01 µM [falling, partial curve, poor fit] | 
5 | Cc1ccc(/C=C/C(=O)Nc2nccs2)o1 | 7.31 µM [falling, partial curve, poor fit] | 
6 | CCn1c(SCC(=O)n2c(C)c(C)c3ccccc32)nnc1-c1ccco1 | 32.6 µM [falling, single point] | 
7 | S=c1nc(-c2cc(Cl)ccc2Cl)[nH][nH]1 | 11.2 µM [falling, partial curve, poor fit] | 
8 | NC(=O)CC(NC(=O)c1ccc(Br)cc1)c1ccc(N2CCN(c3ccc(F)cc3)CC2)c([N+](=O)[O-])c1 (stereo not given) | 10 µM [falling, single point] | 
9 | COc1ccc2nc(-n3c(O)c(C4=c5ccccc5=NC4=O)[nH]c3=S)sc2c1 | 3.66 µM [falling, partial curve] | 
10 | COc1cc(N=Nc2cccc(S(N)(=O)=O)c2)c2ccccc2c1N | 0.251 µM [rising, full curve, poor fit] | 
11 | Cc1nc2ccc(-c3nc4ccc(N)cc4[nH]3)cc2[nH]1 | 15.8 µM [falling, partial curve, poor fit] | 
12 | c1csc(C2=Nn3c(nnc3-c3ccncc3)SC2)c1 | 0.562 µM [falling, full curve, poor fit] | 
13 | O=C(CNC(=O)c1ccccc1O)N/N=C/c1cc(Br)ccc1OC(=O)/C=C/c1ccco1 | 0.562 µM [falling, partial curve, poor fit] | 
14 | COc1cc(-c2nn3c(COc4ccccc4)nnc3s2)cc(OC)c1OC | 1.41 µM [rising, full curve, poor fit] | 
15 | CCCCn1c(-c2ccc(F)c(F)c2)nc2cc3[nH]c(=O)c(C(C)C)nc3cc21 | 11.2 µM [falling, partial curve] | 
16 | COc1ccc(-c2nnc(Nc3ccc(OC)c(C(=O)N4CCCCC4)c3)c3ccccc23)cc1 | 29.1 µM [falling, single point] | 
17 | CCCCn1c(N)c(N(CCOC)C(=O)CN2c3ccccc3CC2C)c(=O)[nH]c1=O (stereo not given) | 10 µM [rising, partial curve, poor fit] | 
18 | CCN(CC)c1ccc(S(=O)(=O)N(CC)CC)cc1NC(=O)C1CCCC1 | 35.5 µM [falling, single point] | 
19 | NC1=NC(=O)/C(=C/c2ccc(Cl)cc2Cl)S1 | 10 µM [falling, partial curve, poor fit] | 17.8 µM [rising, partial curve, poor fit]
20 | O=C(NCc1ccco1)C(Cc1ccccc1)N1C(=O)C2C3C=CC(C3)C2C1=O (stereo not given) | 0.731 µM [rising, partial curve, poor fit] | 
21 | COc1ccccc1N(CC(=O)N1CCCCC1)S(=O)(=O)c1ccccc1 | 6.51 µM [rising, single point] | 

Row | SMILES | AC50 [1] | AC50 [2]
22 | Cc1ccc(C)c(-c2nnc(NC(=O)c3ccco3)o2)c1 | 14.6 µM [falling, partial curve, poor fit] | 
23 | O=C(Cn1nc(-c2cccc(Cl)c2)ccc1=O)Nc1ccc(C(=O)NC2CC2)cc1 | 35.5 µM [rising, single point] | 
24 | CC1(C)NC(=O)N(CC(O)CN(c2ccccc2)S(=O)(=O)c2ccccc2[N+](=O)[O-])C1=O (stereo not given) | 6.31 µM [falling, single point] | 
25 | O=C(CCl)Nc1cccc(Oc2ccccc2)c1 | 11.2 µM [falling, partial curve, poor fit] | 
26 | O=C(c1ccco1)N1CCN(C(=O)C2CCN(S(=O)(=O)c3cccs3)CC2)CC1 | 0.0891 µM [falling, full curve, poor fit] | 
27 | COc1ccc(CN(Cc2ccco2)S(=O)(=O)c2ccc(S(=O)(=O)N3CCCC3)cc2)cc1 | 9.2 µM [rising, single point] | 
28 | COc1cc2c(cc1OC)-c1cc(Nc3ccccc3)nc(=O)n1CC2 | 15.8 µM [rising, partial curve, poor fit] | 7.94 µM [falling, partial curve]
29 | O=C(N/N=C/c1cc(Br)cs1)C(O)c1ccccc1 (stereo not given) | 35.5 µM [falling, single point] | 
30 | O=C(O)C1CCCCC1C(=O)Nc1ccccc1F (stereo not given) | 10.3 µM [rising, partial curve, poor fit] | 
31 | Cc1ccc(S(=O)(=O)/N=C(/NNC(=O)c2cccc(Cl)c2)c2ccccc2)cc1 | 7.08 µM [falling, partial curve, poor fit] | 
32 | COc1ccc(C(=O)NCc2ccc(Cl)cc2)cc1S(=O)(=O)N1CCCC1 | 29.1 µM [falling, single point] | 
33 | CCN(CC)CCCNC(=O)c1cc(Nc2ccc(OC)cc2OC)nc2ccccc12 | 20 µM [falling, partial curve, poor fit] | 
34 | CC(=O)c1ccc(NC(=S)NCc2ccco2)cc1 | 2.82 µM [rising, partial curve, poor fit] | 
35 | C=C1/C=C(\C)[C@](C)(O)C[C@H](O)CC(=O)[C@H](O)[C@@H](O)[C@H](C)C[C@H](C)OC(=O)/C(C)=C/CC/C=C/[C@@H]2O[C@H]2C[C@H](C)C1 | 23.1 µM [falling, partial curve, poor fit] | 
36 | CCOc1ccc(NS(=O)(=O)c2cnc(Cl)c(Cl)c2)cc1 | 29.1 µM [rising, single point] | 29.1 µM [falling, single point]
37 | O=C(Cn1cnc2ccccc2c1=O)NCc1ccc2c(c1)OCO2 | 29.1 µM [falling, single point] | 
38 | CNS(=O)(=O)c1cccc(C(=O)OCC(=O)NC(C)CCc2ccccc2)c1 (stereo not given) | 3.55 µM [rising, partial curve, poor fit] | 
39 | CCN(CC)S(=O)(=O)c1cc(NC(=S)NC(=O)C2CCCC2)ccc1C | 29.1 µM [falling, single point] | 
40 | COc1cc(OC)cc(-c2cc3nc(C)c(CCC(=O)O)c(=O)n3[nH]2)c1 | 29.1 µM [falling, single point] | 
41 | C=CCn1c(-c2cccc3ccccc23)n[nH]c1=S |  | 29.1 µM [falling, single point]
42 | CCCNC(=O)c1cc(-c2ccc3c(c2)OCO3)on1 | 7.94 µM [falling, partial curve] | 

Grouped by structure: the entries above with a nitro group on carbon.
Row | SMILES | AC50 [1] | AC50 [2]
8 | NC(=O)CC(NC(=O)c1ccc(Br)cc1)c1ccc(N2CCN(c3ccc(F)cc3)CC2)c([N+](=O)[O-])c1 (stereo not given) | 10 µM [falling, single point] | 
24 | CC1(C)NC(=O)N(CC(O)CN(c2ccccc2)S(=O)(=O)c2ccccc2[N+](=O)[O-])C1=O (stereo not given) | 6.31 µM [falling, single point] | 

The results go on:

Row | SMILES | AC50 [1] | AC50 [2]
43 | COc1ccc(OC)c(-n2c(-c3cc(-c4ccco4)[nH]n3)n[nH]c2=S)c1 | 20 µM [rising, partial curve] | 
44 | CCC(=O)NNC(=O)Cc1c(C)n(C(=O)c2ccc(Cl)cc2)c2ccc(OC)cc12 | 8.91 µM [falling, partial curve] | 
45 | O=S(=O)(Nc1ccc(N2CCCCC2)cc1)c1cccs1 | 3.16 µM [falling, single point] | 
46 | O=C(COc1ccccc1)Nc1nc2ccccc2[nH]1 | 5.17 µM [falling, full curve] | 
47 | COc1ccc(-c2nc(-c3cccs3)c(-c3cccs3)[nH]2)cc1O | 20.6 µM [falling, partial curve, poor fit] | 
48 | N#Cc1cccc(NC(=O)COC(=O)c2ccccc2Sc2ccccc2C#N)c1 | 2.06 µM [rising, partial curve, poor fit] | 
49 | COc1cc(C(=O)Nc2cccc(-c3nc4ccccc4o3)c2C)cc(OC)c1OC | 3.98 µM [rising, single point] | 
50 | O=c1c2c(nc3cc(-c4ccc(F)cc4)[nH]n13)CCC2 | 4.61 µM [falling, full curve] | 
51 | Nc1nc(CSc2n[nH]c(-c3ccccc3)n2)nc(Nc2ccccc2)n1 | 6.51 µM [rising, single point] | 
52 | O=[N+]([O-])c1cc(/C=N/N/C(=N/c2ccccn2)c2ccccn2)ccc1O | 17.8 µM [falling, single point] | 
53 | COc1ccccc1OCc1nc2ccccc2s1 | 7.31 µM [falling, partial curve] | 
54 | CCCCCC1CC(CC(=O)O)C(=O)O1 (stereo not given) | 29.1 µM [rising, single point] | 
55 | O=C(Nc1ccccc1[N+](=O)[O-])C1COc2ccccc2O1 (stereo not given) | 5.01 µM [rising, partial curve, poor fit] | 
56 | Cc1cc(=O)oc2ccc(OC(=O)c3cccc(S(=O)(=O)N4CCOCC4)c3)cc12 | 18.4 µM [falling, single point] | 
57 | CN(Cc1ccc(-n2cccn2)cc1)C(=O)c1cnn2c1NC(c1ccco1)CC2C(F)(F)F (stereo not given) | 23.1 µM [falling, single point] | 
58 | CCc1ccc2oc(-c3ccc(NC(C)=O)cc3)nc2c1 | 14.1 µM [falling, single point] | 
59 | Cc1[nH]nc(Nc2ccc(Br)cc2)c1[N+](=O)[O-] | 0.1 µM [rising, full curve, poor fit] | 
60 | CC(=O)Nc1sc2c(c1-c1nc3ccccc3s1)CCN(C(C)C)C2 | 35.5 µM [rising, single point] | 
61 | CCC(=O)N(CCc1ccccc1C)Cc1cc2cc3c(cc2[nH]c1=O)OCO3 | 29.1 µM [falling, single point] | 20.6 µM [rising, partial curve, poor fit]
